# Source: the supplement of paper PMC10849652
# Amino acid sequences for entries named in this document (tags omitted). A change or cut given only in a name is not applied to a line headed by its entry.
# UniProt P51665: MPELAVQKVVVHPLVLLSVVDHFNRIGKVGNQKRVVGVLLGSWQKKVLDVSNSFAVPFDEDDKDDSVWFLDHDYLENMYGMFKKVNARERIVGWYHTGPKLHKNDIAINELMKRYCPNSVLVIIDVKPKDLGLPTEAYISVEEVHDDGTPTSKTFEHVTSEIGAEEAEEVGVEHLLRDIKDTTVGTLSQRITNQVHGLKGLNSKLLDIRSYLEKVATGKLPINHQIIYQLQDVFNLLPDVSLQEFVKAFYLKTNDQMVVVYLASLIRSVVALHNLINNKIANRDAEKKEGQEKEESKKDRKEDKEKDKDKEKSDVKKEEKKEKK
# UniProt Q14558: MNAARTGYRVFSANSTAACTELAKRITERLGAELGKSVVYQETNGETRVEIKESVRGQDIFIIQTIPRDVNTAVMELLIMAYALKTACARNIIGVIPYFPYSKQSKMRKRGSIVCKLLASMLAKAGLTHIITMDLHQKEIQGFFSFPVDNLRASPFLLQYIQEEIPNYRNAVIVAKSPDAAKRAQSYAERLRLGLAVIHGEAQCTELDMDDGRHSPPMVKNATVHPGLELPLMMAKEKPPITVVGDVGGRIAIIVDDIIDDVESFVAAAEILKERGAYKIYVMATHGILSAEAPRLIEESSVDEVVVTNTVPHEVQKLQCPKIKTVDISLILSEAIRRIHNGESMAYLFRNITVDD
# UniProt P17706: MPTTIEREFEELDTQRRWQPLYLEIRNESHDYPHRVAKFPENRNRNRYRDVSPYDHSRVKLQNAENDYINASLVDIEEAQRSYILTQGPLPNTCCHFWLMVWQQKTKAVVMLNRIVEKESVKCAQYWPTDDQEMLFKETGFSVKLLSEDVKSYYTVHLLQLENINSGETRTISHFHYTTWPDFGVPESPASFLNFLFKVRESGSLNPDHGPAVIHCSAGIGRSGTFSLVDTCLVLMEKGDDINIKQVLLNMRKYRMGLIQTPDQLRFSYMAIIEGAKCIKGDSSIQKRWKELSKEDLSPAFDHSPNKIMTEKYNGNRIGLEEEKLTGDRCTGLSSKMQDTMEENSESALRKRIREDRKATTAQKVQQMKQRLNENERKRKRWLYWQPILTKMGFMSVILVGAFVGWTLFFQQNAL
# UniProt Q9H3S7: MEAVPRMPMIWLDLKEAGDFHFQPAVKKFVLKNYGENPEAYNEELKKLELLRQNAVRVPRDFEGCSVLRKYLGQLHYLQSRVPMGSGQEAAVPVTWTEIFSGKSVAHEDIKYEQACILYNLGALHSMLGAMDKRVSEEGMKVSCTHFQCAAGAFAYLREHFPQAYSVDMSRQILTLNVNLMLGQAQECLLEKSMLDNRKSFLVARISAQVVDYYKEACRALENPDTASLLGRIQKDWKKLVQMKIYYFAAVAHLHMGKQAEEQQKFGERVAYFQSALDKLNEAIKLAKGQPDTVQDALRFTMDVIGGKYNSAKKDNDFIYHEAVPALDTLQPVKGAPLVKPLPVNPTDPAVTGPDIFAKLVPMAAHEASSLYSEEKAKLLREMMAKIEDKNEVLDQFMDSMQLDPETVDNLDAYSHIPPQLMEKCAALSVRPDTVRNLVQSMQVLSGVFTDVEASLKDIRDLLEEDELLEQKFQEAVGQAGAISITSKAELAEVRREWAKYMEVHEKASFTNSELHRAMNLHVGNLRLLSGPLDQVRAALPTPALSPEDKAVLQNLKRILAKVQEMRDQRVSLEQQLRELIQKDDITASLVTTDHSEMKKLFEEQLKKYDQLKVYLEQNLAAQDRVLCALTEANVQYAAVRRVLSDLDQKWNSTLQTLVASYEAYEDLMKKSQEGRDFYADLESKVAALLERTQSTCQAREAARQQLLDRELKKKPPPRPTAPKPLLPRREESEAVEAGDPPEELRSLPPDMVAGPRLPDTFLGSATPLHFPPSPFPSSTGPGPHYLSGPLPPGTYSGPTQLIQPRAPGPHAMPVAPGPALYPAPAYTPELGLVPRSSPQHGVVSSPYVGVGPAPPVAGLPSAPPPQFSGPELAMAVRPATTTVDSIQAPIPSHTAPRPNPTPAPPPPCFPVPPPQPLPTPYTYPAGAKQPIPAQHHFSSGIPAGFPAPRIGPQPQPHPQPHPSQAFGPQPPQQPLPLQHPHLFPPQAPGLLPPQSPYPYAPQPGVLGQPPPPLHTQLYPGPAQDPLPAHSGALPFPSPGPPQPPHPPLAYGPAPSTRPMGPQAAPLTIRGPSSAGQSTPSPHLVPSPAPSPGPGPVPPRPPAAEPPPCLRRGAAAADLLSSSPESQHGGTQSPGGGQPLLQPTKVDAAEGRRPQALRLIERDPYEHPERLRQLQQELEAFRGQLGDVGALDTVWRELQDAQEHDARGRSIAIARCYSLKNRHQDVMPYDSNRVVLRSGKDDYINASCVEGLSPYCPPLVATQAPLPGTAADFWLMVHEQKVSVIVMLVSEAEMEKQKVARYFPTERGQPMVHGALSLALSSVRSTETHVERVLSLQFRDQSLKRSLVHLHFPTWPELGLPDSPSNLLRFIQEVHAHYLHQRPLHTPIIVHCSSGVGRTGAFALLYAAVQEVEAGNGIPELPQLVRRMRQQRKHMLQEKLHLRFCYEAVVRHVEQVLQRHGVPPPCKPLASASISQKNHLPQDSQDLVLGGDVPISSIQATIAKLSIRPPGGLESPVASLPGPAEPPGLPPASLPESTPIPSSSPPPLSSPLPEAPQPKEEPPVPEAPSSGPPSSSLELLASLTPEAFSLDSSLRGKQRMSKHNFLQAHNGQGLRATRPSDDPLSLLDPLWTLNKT
# UniProt Q5JS54: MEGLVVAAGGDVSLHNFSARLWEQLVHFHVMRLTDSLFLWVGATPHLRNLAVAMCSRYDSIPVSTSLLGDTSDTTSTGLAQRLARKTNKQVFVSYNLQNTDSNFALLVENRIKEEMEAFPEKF
# UniProt Q8WUK0: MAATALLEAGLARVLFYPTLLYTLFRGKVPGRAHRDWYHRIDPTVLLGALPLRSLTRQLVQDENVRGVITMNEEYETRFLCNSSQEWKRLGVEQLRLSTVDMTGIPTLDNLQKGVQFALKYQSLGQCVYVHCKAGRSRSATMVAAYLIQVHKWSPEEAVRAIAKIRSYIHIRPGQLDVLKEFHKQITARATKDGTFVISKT
# UniProt O60256: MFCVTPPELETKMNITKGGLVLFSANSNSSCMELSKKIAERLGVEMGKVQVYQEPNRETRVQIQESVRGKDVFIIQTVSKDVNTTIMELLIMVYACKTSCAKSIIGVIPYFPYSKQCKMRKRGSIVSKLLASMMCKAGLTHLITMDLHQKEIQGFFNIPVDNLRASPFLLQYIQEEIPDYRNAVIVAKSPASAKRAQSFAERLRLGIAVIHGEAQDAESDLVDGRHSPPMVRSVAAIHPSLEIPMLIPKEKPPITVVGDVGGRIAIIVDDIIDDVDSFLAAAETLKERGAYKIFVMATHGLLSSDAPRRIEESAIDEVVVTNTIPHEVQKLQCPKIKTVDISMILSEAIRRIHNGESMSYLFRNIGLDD
# Some of the results follow.
# How the values were obtained:
# Experiment in all cases: log2 fold change, soluble protein after heating vs DMSO (PISA); higher = thermal stabilisation; K562 lysate, 10 uM; active = over 0.2 and 3.5 SD of the protein, either way, in both replicates (recomputed)
# [1] = compound: CN1CC[C@H](c2c(O)cc(O)c3c(=O)cc(-c4ccccc4Cl)oc23)[C@H](O)C1 [alvocidib]
# In short: (§1)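 The values are log-two fold changes in thermal stability compared with solvent controls and come from duplicates. They were obtained by TMTpro 16plex LC-MS/MS, with channel sums equalised, on the supernatant after 21,000xg for 90 min. That supernatant came from crude K562 extract at 1 mg/mL protein treated with 10 μM compound for 30 min, heated for 3 min across 48°C-58°C, pooled and brought to 0.5% NP-40 at 4°C.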
# [2] = compound: CN1CCc2c(c3ccccc3n2Cc2ccc(C(=O)NO)cc2)C1 [Tubastatin A]
# In short: as §1
# [3] = compound: CNC(=O)C1=CC=CC=C1NC2=NC(=NC=C2Cl)NC3=C(C=C(C=C3)N4CCOCC4)OC
# In short: as §1
# [4] = compound: CNC(=O)c1ccc(Nc2ncc(C(F)(F)F)c(NCc3nccnc3N(C)S(C)(=O)=O)n2)cc1 [defactinib]
# In short: as §1
# [5] = compound: CNc1nc(-c2ccc3c(N)n[nH]c3c2)cc(N2C[C@@H](C(=O)NC3CCCCC3)CC[C@H]2C)n1
# In short: as §1
# [6] = compound: COC(=O)N[C@@H](C)CNc1nccc(-c2cn(C(C)C)nc2-c2cc(Cl)cc(NS(C)(=O)=O)c2F)n1 [encorafenib]
# In short: as §1
# [7] = compound: COC(=O)[C@H](CCSC)NC(=O)C1=C(C=C(C=C1)NC[C@H](CS)N)C2=CC=CC=C2
# In short: as §1
# [8] = compound: COc1cc(Nc2ncc3c(n2)-c2ccc(Cl)cc2C(c2c(F)cccc2OC)=NC3)ccc1C(=O)O [alisertib]
# In short: as §1
# [9] = compound: COc1cc2nc(-c3cc(F)ccc3O)nc(N[C@@H]3CNC[C@H]3C(C)(C)O)c2cc1OC
# In short: as §1
# [10] = compound: COc1cc2ncnc(Nc3ccc(F)c(Cl)c3)c2cc1OCCCN1CCOCC1 [gefitinib]
# In short: as §1
# [11] = compound: CS(=O)(=O)CCNCc1ccc(-c2ccc3ncnc(Nc4ccc(OCc5cccc(F)c5)c(Cl)c4)c3c2)o1 [lapatinib]
# In short: as §1
# [12] = compound: CS(=O)(=O)N1CCN(Cc2cc3nc(-c4cccc5[nH]ncc45)nc(N4CCOCC4)c3s2)CC1 [pictilisib]
# In short: as §1
# [13] = compound: C[C@@H](Oc1cc(-c2cnn(C3CCNCC3)c2)cnc1N)c1c(Cl)ccc(F)c1Cl [crizotinib]
# In short: as §1
# [14] = compound: C[C@H](C1=CC=C(C=C1)C(=O)NC2=C3C=CNC3=NC=C2)N
# In short: as §1
# [15] = compound: C[C@H](Nc1ncnc2nc[nH]c12)c1cc2cccc(Cl)c2c(=O)n1-c1ccccc1 [duvelisib]
# In short: as §1
# [16] = compound: Cc1cc(Nc2cc(CN3CCOCC3)c3nc(C)c(Cc4ccc(Cl)cc4F)n3n2)n[nH]1 [gandotinib]
# In short: as §1
# [17] = compound: Cc1cc(Nc2cc(N3CCN(C)CC3)nc(Sc3ccc(NC(=O)C4CC4)cc3)n2)n[nH]1 [tozasertib]
# In short: as §1
# [18] = compound: Cc1ccc(-n2nc(C(C)(C)C)cc2NC(=O)Nc2ccc(OCCN3CCOCC3)c3ccccc23)cc1 [doramapimod]
# In short: as §1
# [19] = compound: Cc1ccc(NC(=O)c2ccc(CN3CC[C@H](N(C)C)C3)c(C(F)(F)F)c2)cc1Nc1nccc(-c2cncnc2)n1 [bafetinib]
# In short: as §1
# [20] = compound: Cc1cccc(CC(=O)N2CCc3c2ccc(-c2cn(C)c4ncnc(N)c24)c3F)n1
# In short: as §1
Target,log2 fold change [1],log2 fold change [2],log2 fold change [3],log2 fold change [4],log2 fold change [5],log2 fold change [6],log2 fold change [7],log2 fold change [8],log2 fold change [9],log2 fold change [10],log2 fold change [11],log2 fold change [12],log2 fold change [13],log2 fold change [14],log2 fold change [15],log2 fold change [16],log2 fold change [17],log2 fold change [18],log2 fold change [19],log2 fold change [20]
PSMD7 (UniProt P51665),inactive: 0.024,inactive: 0.021,inactive: -0.031,inactive: 0.002,inactive: -0.007,inactive: -0.015,inactive: 0.014,inactive: -0.013,inactive: 0.016,inactive: -0.026,inactive: -0.009,inactive: -0.006,inactive: -0.052,inactive: 0.001,inactive: 0.011,inactive: -0.039,inactive: -0.005,inactive: 0.012,inactive: -0.046,inactive: 0.001
PWP1 (UniProt Q13610),inactive: 0.063,inactive: -0.017,inactive: -0.012,inactive: 0.002,inactive: -0.046,inactive: 0.046,inactive: -0.013,inactive: -0.014,inactive: 0.008,inactive: -0.017,inactive: 0.041,inactive: -0.001,inactive: 0.003,active: 0.488,inactive: 0.055,inactive: -0.052,inactive: 0,inactive: -0.125,inactive: 0.032,inactive: -0.084
PRPSAP1 isoform 2 (UniProt Q14558),inactive: 0.016,inactive: 0.02,inactive: 0.001,inactive: 0.007,inactive: 0.023,inactive: -0.029,inactive: -0.055,inactive: 0.007,inactive: -0.009,inactive: -0.02,inactive: 0.006,inactive: -0.023,inactive: -0.001,inactive: -0.021,inactive: 0.004,inactive: -0.017,inactive: 0.041,inactive: -0.013,inactive: 0.019,inactive: 0.036
PTPN2 (UniProt P17706),inactive: -0.036,inactive: -0.115,inactive: 0.049,inactive: -0.008,inactive: 0.005,inactive: -0.035,inactive: 0.053,inactive: 0.052,inactive: -0.006,inactive: -0.006,inactive: -0.016,inactive: -0.01,inactive: -0.074,inactive: -0.084,inactive: -0.042,inactive: -0.013,inactive: -0.037,inactive: -0.012,inactive: -0.077,inactive: 0.071
PTPN23 (UniProt Q9H3S7),inactive: -0.004,inactive: -0.035,inactive: -0.03,inactive: -0.018,inactive: 0.016,inactive: 0.031,inactive: -0.018,inactive: 0.012,inactive: -0.017,inactive: 0.005,inactive: 0.003,inactive: -0.028,inactive: -0.014,inactive: 0.005,inactive: -0.023,inactive: -0.031,inactive: 0.013,inactive: 0.016,inactive: -0.032,inactive: 0.023
PSMG4 isoform 2 (UniProt Q5JS54),inactive: -0.141,inactive: -0.056,inactive: 0.055,inactive: 0.01,inactive: 0.113,inactive: 0.058,inactive: 0.012,inactive: -0.098,inactive: -0.036,inactive: 0.018,inactive: 0.157,inactive: 0.113,inactive: -0.069,inactive: 0.096,inactive: -0.02,inactive: 0.098,inactive: -0.012,inactive: 0.085,inactive: 0.038,inactive: -0.02
PTPMT1 (UniProt Q8WUK0),inactive: 0.119,inactive: -0.313,inactive: 0.009,inactive: 0.012,inactive: 0.056,inactive: -0.057,inactive: 0.014,inactive: 0.04,inactive: -0.294,inactive: -0.031,inactive: -0.019,inactive: 0.043,inactive: -0.192,inactive: -0.13,inactive: 0.018,inactive: -0.228,inactive: 0.176,inactive: 0.004,inactive: -0.141,inactive: -0.132
PRPSAP2 (UniProt O60256),inactive: -0.059,inactive: 0.011,inactive: 0.02,inactive: 0.007,inactive: 0.023,inactive: 0.007,inactive: -0.012,inactive: -0.007,inactive: -0.006,inactive: -0.053,inactive: -0.009,inactive: -0.03,inactive: 0.025,inactive: -0.141,inactive: -0.001,inactive: 0.067,inactive: -0.028,inactive: -0.012,inactive: 0.016,inactive: 0.05
